Assay results taken from US4760147A, “Optically active, substituted 1,4-dihydropyridines and their use as medicaments” (Cassella Aktiengesellschaft, priority 1984, dated 1988).
pIC50: −log10 of the molar value.

Test system: spiral strips of the arteria pulmonalis of guineapigs
Assay: calcium-antagonistic action: relaxing effect on potassium-depolarised, CaCl2-contracted spiral strips of the arteria pulmonalis (modified method of Godfraind and Kaba and of Schumann et al)
Type: cell-based
Settings: read-out: IC50 (concentration which inhibits the contraction by 50%)
Procedure: In these experiments, spiral strips of the arteria pulmonalis of guineapigs are depolarised with 40 mmol of potassium, after equilibration in calcium-freeTyrode's solution. The addition of 0.5 mmol of CaCl2 then triggers off contraction. The relaxing effect of the test substance is determined by cumulative addition in 1/2 log 10 graduated concentrations. The concentration of the test substance which inhibits the contraction by 50% (=IC50, mole/l) is determined from the concentration/effect curve (abscissa: -log mole/l of test substance, ordinate: % inhibition of the maximum contraction, mean value of 4 to 6 vascular strips).

Compound: COC(=O)C1=C(C)NC(C)=C(C(=O)OC)C1c1ccccc1[N+](=O)[O-] [nifedipine, methyl 1,4-dihydro-2,6-dimethyl-4-(2-nitrophenyl)-pyridine-3,5-dicarboxylate, reference compound]
- pIC50: 8.52
